Assay results as given in paper PMC7168933, “Design, Synthesis and Biochemical Evaluation of Novel Ethanoanthracenes and Related Compounds to Target Burkitt’s Lymphoma” (Pharmaceuticals, 2020).

Columns and labels:
[1] = system: MUTU-1 Burkitt lymphoma cell line (EBV+); assay: cells; details: Mutu-1, 24 h, read-out: IC50 MUTU-I 24 h
[2] = system: DG-75 Burkitt lymphoma cell line (EBV−, chemoresistant); assay: cells; details: Homo sapiens, DG-75, 48 h, read-out: IC50 DG-75 48 h

CNCCCC12CCC(c3ccccc31)c1ccccc12 [Maprotiline 8, maprotiline, reference compound]
IC50 [1]: 15.8 µM | IC50 [2]: 37.5 µM
